Assay results published in PubChem BioAssay AID1794845 (National Center for Advancing Translational Sciences (NCATS), 2023).
The campaign covered roughly 6,900 compounds. Fewer than 10 were called active. The call rests on the fitted dose curve; in most records, active means well fitted curve in the direction sought with a large enough effect; inconclusive means small, poorly fitted or top-dose-only effect, or another doubt; inactive means no such curve, though single readings can be large or run the other way. This is one part of the list.

Amino acid sequences for entries named in this document (tags omitted). A change or cut given only in a name is not applied to a line headed by its entry.
UniProt C7C422: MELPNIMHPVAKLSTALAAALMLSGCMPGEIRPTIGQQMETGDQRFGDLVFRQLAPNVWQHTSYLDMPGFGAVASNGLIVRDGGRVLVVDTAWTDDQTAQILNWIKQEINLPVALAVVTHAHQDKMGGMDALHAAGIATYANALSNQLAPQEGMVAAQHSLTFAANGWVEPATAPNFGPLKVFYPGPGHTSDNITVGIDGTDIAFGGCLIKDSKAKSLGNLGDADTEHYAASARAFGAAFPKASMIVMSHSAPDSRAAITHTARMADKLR

These compounds were tested against Metallo-beta-lactamase type 2 (Klebsiella pneumoniae) (UniProt C7C422) (assay: qHTS to identify inhibitors of the New Delhi Metallo-beta-lactamase (NDM): primary screen against the NCATS Gemini Collection). Details: NDM-1 enzyme, meropenem hydrolysis, absorbance 300 nm; at 38.4 µM (top of the series) unless noted.
Method in brief: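 NDM-1 at 2 nM final in 50 mM HEPES pH 7.0, 1 uM ZnSO4, 0.01% Tween20, preincubated >30 min with compound. Meropenem 50 uM final added; absorbance at 300 nm after 30 min.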
Further: % of control where 0% means no effect.

Compound	activity % (negative = inhibition)
CC(=O)NC1CC2(CCN(Cc3ccc(O)cc3)CC2)c2ccccc21 (stereo not given)	inactive: 0.0678%
CC(=O)Nc1ccccc1NC(=O)CN1CCN(Cc2ncccc2C)CC1	inactive: 0.932%
COCc1ncc(C)n1C1CCCN(C(=O)CCCc2ccccc2)C1 (stereo not given)	inactive: -0.663%
Cc1c(CN2CC[C@H]3CC[C@@H](C2)N3)c(=O)n(-c2ccccc2)n1C	inactive: -15.7%
O=C(NCCc1ccc(Cl)cc1)C1CN(C2CCCC2)C(=O)N1 (stereo not given)	inactive: -2.82% [at 57.5 µM]
CCN1CCN(C(=O)Cn2nc(C)c3sc(-c4ccccc4)nc3c2=O)CC1	inactive: 4.84%
Cc1ccc(NC(=O)COc2ccc(-c3nnc4n3CCCC4)cc2)cc1C	inactive: -5.53%
COCCN1CCC2(CCC1=O)CN(c1ccc(C#N)cn1)CCN2C (stereo not given)	inactive: 10.4%
CC1=NOC2(CCN(CC3CC3)CC2)C1	inactive: -0.356% [at 77.1 µM]
Cc1noc(C)c1-c1cnc(Nc2ccc(F)c(Cl)c2)c2c1CCO2	inactive: 8.29% [at 57.5 µM]
C#CCNC(=O)CC[C@@H]1CNC(=O)[C@@H]2C[C@H](NC(=O)c3ccco3)CN12	inactive: 9.64% [at 57.5 µM]
CCCN(C)C(=O)CC1COCCN1C(=O)Nc1cccc(SC)c1 (stereo not given)	inactive: 9.19%
COC1C(=O)N(C2CCN(C(=O)c3cc(C)nn3C)CC2)C12CCOCC2 (stereo not given)	inactive: -2.29%
Cc1cc(CNC(=O)c2cc(C(C)C)nn2C)c2[nH]c(C)c(C)c2c1	inactive: 0.803%
O=C(NCc1ccccc1F)C1CC(c2ccccc2)CN(C(=O)COc2ccccc2)C1 (stereo not given)	inactive: 0.0909%
Cn1nccc1CN1CCC2(C1)C(=O)Nc1ccccc12 (stereo not given)	inactive: 3.26% [at 57.5 µM]
CCn1ncnc1C1CC(=O)Nc2cc(OC)c(NS(C)(=O)=O)cc21 (stereo not given)	inactive: 5.2%
C[S+](=O)([O-])NC1CCCN(Cc2ccc(-c3cncnc3)cc2)C1 (stereo not given)	inactive: -3.7%
CN(C(=O)CCc1nc2ccccc2[nH]1)C1CCc2nn(C)c(=O)n2CC1 (stereo not given)	inactive: 36.8%
COc1ccc(NC(=O)c2ccc3c(c2)OCC(=O)N(C)C3)c(F)c1	inactive: 7.07% [at 57.5 µM]
COc1ccccc1OCCNC(=O)C(C)C1CCOCC1 (stereo not given)	inactive: -4.03%
Cc1ccc(C(=O)N2CCc3sc(C(=O)NCc4cc(F)cc(F)c4)cc3C2)cc1	inactive: 1.07%

A different layout for two compounds above.
Compound | activity % (negative = inhibition)
COCc1ncc(C)n1C1CCCN(C(=O)CCCc2ccccc2)C1 (stereo not given) | inactive: -0.663%
CN(C(=O)CCc1nc2ccccc2[nH]1)C1CCc2nn(C)c(=O)n2CC1 (stereo not given) | inactive: 36.8%

Next part:

Compound	activity % (negative = inhibition)
Cc1nc(CN2C[C@H](C(=O)N3CCN(c4ccccn4)CC3)C[C@@H]2c2ccc(F)cc2)cs1	inactive: 6.89%
Cc1cnc(CCNC(=O)c2n[nH]c3ccccc23)n1C1CCC1	inactive: 37.3%
CC(C)(C)OCC1CN(Cc2cccs2)[S+](=O)([O-])c2cccnc2O1 (stereo not given)	inactive: 3.06% [at 16.1 µM]
COc1ncccc1-c1nc(-c2c(C)noc2C)cc2c1cc(C)n2CCN(C)C	inactive: 14.3% [at 57.5 µM]
COC(=O)[C@H](Cc1ccc(OC)cc1)NC(=O)[C@H]1CN(C(=O)c2ccc(N(C)C)cc2)CCN1C(=O)c1cccs1	inactive: 12.4%
COCCn1nc2n(c1=O)CCN(Cc1ccc(Br)o1)CC2	inactive: 1.06%
CC(C)OCCCNC(=O)c1cc(-c2cccc(C(F)(F)F)c2)c2cccn2n1	inactive: 7.21%
CN(CCc1ccccn1)c1ncccc1CNC(=O)C1CCc2ccccc21 (stereo not given)	inactive: -3.09%
c1ccc(-n2cc(CN3CCCN(Cc4cccs4)CC3)nn2)cc1	inactive: 26.8%
COc1cc(SC)c(OC)cc1CN1CCC2(CC(=O)NC2=O)C1 (stereo not given)	inactive: 4.88%
COCCCNC(=O)c1cnc2n[nH]c(-c3ccccc3)c2n1	inactive: 3.91% [at 57.5 µM]
CCCCc1ccc(NC(=O)CN2C(=O)NC3(CCS(=O)(=O)CC3)C2=O)cc1	inactive: -0.795%
CCOc1ccc(CNC(=O)C2c3ccccc3CC(=O)N2CC)cc1 (stereo not given)	inactive: 25.1%
O=C(NCc1ccccc1)c1ccccc1OC1CN(C2CCC2)C1	inactive: -6.25%
Cc1cn2nc(C(=O)NC3CCC(C)CC3)cc2c(N2CCCC2)n1 (stereo not given)	inactive: 81.6%
COC1CCN(CC2CCCCCN2C(=O)NCc2ccc(F)cc2)CC1 (stereo not given)	inactive: -0.412%
COCCc1noc(CNC(=O)c2ccc(-c3ccccc3Cl)o2)n1	inactive: 20.8%
CCOCCCNC(=O)c1cc2cn(C3CC3)cc2s1	inactive: 3.22%
O=C1NCc2ccccc2CC12CCCN2Cc1ccc(F)cc1F (stereo not given)	inactive: 1.41%
O=C1Nc2ccc(-c3ccsc3)cc2C(=O)N2CCN(C(=O)CO)C[C@H]12	inactive: 7.77% [at 57.5 µM]
CCn1cc(S(=O)(=O)N2CCC(c3noc(-c4ccncc4)n3)C2)cn1 (stereo not given)	inactive: -3.52%
CCCC(=O)N1Cc2ccccc2CC2(CCCN(Cc3ccccn3)C2)C1 (stereo not given)	inactive: -5.79%

Compound	activity % (negative = inhibition)
O=C(NCc1c[nH]c2ncccc12)c1ccccc1Cl	inactive: -0.0313% [at 57.5 µM]
c1ccc2cc(-c3noc([C@@H]4Cc5nc[nH]c5CN4CC4CCCCC4)n3)ccc2c1	inactive: 63.5% [at 57.5 µM]
CN[C@@H](C)C(=O)N1CCC(c2cc(N3CCOCC3)nc(C)n2)CC1	inactive: -7.44%
COCC(=O)N[C@H]1CCN(C(=O)COC)[C@H](C(=O)N[C@@H](Cc2cccs2)C(N)=O)C1	inactive: 0.56%
NC(=O)[C@H](CC1CCCCC1)NC(=O)[C@@H]1CN(C(=O)Nc2ccccc2)CCN1S(=O)(=O)c1ccccc1	inactive: 2.27%
COc1ccc(CC(=O)N2CCCC2C(=O)N2CCC(c3nc4ccncc4[nH]3)C2)cc1 (stereo not given)	inactive: -2.24%
C[C@@]1(O)CCN(C(=O)c2cccc(F)c2)C[C@H]1N1CCCC1	inactive: 0.632%
CNC(=O)c1cc(C2CC2)nc2c1c(C1CCN(C(=O)Cc3ccc(OC)cc3)CC1)nn2C	inactive: 3.96%
CC(C)N1CCN(C(=O)C2CCN(c3cnn(CC4CC4)c(=O)c3)C2)CC1 (stereo not given)	inactive: 8.43%
CC(C)c1noc(C2CCCN(S(=O)(=O)c3cccs3)CCC(=O)NCC2)n1 (stereo not given)	inactive: -16.5%
CC(C)C[C@H]1NC(=O)[C@@H]2C[C@@H](NC(=O)CS(=O)(=O)c3ccccc3)CCN2C1=O	inactive: 5.22% [at 57.5 µM]
CCn1ncc(CN2CC[C@@H]3CN(S(C)(=O)=O)[C@@H]3C2)c1C	inactive: -2.7%
CNC(=O)C(C)(C)N1CCC[C@H]1C(=O)NC1CCCCC1	inactive: -1.25% [at 57.5 µM]
O=C1NC2(CCCN([S+](=O)([O-])c3ccsc3)C2)COc2ccccc21 (stereo not given)	inactive: 1.62%
COc1cc(SC)ccc1C(=O)N[C@H]1CCN2C(=O)N(c3cccc(C(F)(F)F)c3)C(=O)[C@@H]2C1	inactive: -1.8%
CCOC(=O)c1cn(C2CN(C(=O)Cc3cccc(Cl)c3)C2)nn1	inactive: -0.217%
CCC(=O)N(C1CCOCC1)C1CCN(Cc2ccc(SC)cc2)CC1	inactive: 50%
O=C1CCN(C(=O)Cc2ccccc2)CCCOCCN1	inactive: 9.17%
COC(=O)[C@@H]1Cc2ncn(Cc3ccc(OC)cc3)c2CN1S(=O)(=O)c1ccccc1	inactive: -8.42%
CCC[C@@H]1CN(C(=O)c2cc(-c3cccs3)n(C)n2)C[C@H]1N(C)C	inactive: 8.73%
CNC(=O)c1noc([C@@H]2CC(F)(F)CN2Cc2cccn2C)n1	inactive: -0.383%
CC(C)[C@H]1CN(CCS(C)(=O)=O)C[C@@H]1NC(=O)c1ccco1	inactive: -2.79%

Compound	activity % (negative = inhibition)
Cc1ccccc1OCc1nc(C2CN(C(=O)c3nccc4ccccc34)C2)no1	inactive: -0.572%
COCCn1c(CO)nnc1C1CC(NC(=O)c2cc(C)n3nc(C)cc3n2)C1 (stereo not given)	inactive: 7.18%
O=C(c1ccco1)N1CCC(N2CC3(CCCC3)C2c2ccccc2)CC1 (stereo not given)	inactive: 5.34%
Cc1nc(C)c(C(=O)N2CCC(c3nnc(Cn4ccnc4)n3C)CC2)o1	inactive: 3.06%
COc1ccc(-c2cnc3[nH]cc(CC(=O)Nc4ccc(C(F)(F)F)cc4)c3c2)cc1	inactive: 80.1% [at 57.5 µM]
O=C(NCC1(O)CCCNCC1)c1cccc(-c2ccc(F)cc2)c1 (stereo not given)	inactive: -3.46%
CCn1ccnc1CN1CCCC(CO)(Cc2cccc(Cl)c2)C1 (stereo not given)	inactive: -11.4%
CCCC1CN(Cc2ccc(OC)cc2)[S+](=O)([O-])c2cnccc2O1 (stereo not given)	inactive: 1.9%
Cc1ccc(-c2noc(CNC(N)=O)n2)nn1	inactive: 0.545%
COCc1ncc(C)n1CCNC(=O)c1ccc(OC)nc1OC	inactive: 26.7%
Cn1cc(CN2C[C@H](C(=O)Nc3ccc(F)cc3)C[C@@H]2c2cccc(C(F)(F)F)c2)cn1	inactive: 1.12%
CNC(=O)N1CCCC1c1nc(C2CN(C(=O)c3cnccn3)C2)no1 (stereo not given)	inactive: 2.19%
COc1ccc(C(C)NC(=O)c2noc(-c3ccc(F)cc3)n2)cc1OC (stereo not given)	inactive: -1.9%
COc1ccc(F)cc1-c1cccc(C(=O)NCC(=O)NCc2cccs2)c1	inactive: 0.401%
C[C@H]1CCCN1C(=O)c1nnc(CNCCCn2ccnc2)n1-c1ccccc1	inactive: 9.2% [at 57.5 µM]
CCCN1C(=O)CCc2cc(NC(=O)NCCCOCC)ccc21	inactive: 9.71%
Cc1cc(C(=O)N2CCCC(n3c(C)cnc3C3CCC3)C2)nn1C (stereo not given)	inactive: 10.5%
Cc1ccc(CN2CCOCCNC(=O)[C@H]3CCCC[C@H]32)s1	inactive: -2.39%
Cc1cc(CN(C)C(=O)c2cc(COc3ccc4c(c3)OCO4)[nH]n2)on1	inactive: -0.402%
